According to patent publication US20220372125A1 (ASLAN PHARMACEUTICALS PTE, published 2022):
No constants are given. Whether binding was seen depends on the method and setting. Some binding calls cover weakened binding; strength is not graded here. Where a sequence is shown, tags or fusion partners need not be part of it. Each block holds one binder with its values, some of them ahead of it.

Legend:
[1] = target: T1, Mammalian expressed extracellular human RON protein (Gly25 to Thr957) with His-tag (human) (UniProt Q04912); assay: ELISA, coated His-tagged RON ECD
T1 sequence: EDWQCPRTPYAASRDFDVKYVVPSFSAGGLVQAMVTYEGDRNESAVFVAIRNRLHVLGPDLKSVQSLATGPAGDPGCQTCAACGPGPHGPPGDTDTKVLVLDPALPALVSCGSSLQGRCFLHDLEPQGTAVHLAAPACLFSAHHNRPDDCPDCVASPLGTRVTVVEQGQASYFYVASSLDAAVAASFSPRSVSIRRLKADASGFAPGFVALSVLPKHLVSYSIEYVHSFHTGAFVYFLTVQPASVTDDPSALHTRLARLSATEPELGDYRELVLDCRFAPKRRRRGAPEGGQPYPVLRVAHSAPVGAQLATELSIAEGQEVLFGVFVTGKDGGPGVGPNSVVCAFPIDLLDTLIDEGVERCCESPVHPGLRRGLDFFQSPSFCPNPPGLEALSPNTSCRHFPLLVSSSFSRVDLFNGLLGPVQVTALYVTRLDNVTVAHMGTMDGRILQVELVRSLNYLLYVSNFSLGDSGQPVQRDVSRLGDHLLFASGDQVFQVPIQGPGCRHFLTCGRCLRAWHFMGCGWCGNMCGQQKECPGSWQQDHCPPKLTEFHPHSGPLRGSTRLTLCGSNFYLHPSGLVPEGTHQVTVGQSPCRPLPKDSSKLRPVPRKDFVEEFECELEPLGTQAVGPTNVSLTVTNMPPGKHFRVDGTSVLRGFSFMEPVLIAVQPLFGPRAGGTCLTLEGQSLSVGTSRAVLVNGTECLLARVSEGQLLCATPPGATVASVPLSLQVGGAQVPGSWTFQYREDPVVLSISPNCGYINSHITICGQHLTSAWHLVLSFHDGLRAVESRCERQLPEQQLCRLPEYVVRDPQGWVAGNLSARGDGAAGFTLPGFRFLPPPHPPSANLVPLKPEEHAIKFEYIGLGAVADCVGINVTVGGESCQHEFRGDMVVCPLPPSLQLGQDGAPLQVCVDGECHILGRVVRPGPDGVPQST

[2] = target: T1, Mammalian expressed extracellular human RON protein (Gly25 to Thr957) with His-tag (human); assay: ELISA, plate coated with His-tagged RON ECD, absorbance at 650 nm
[3] = target: T1, Mammalian expressed extracellular human RON protein (Gly25 to Thr957) with His-tag (human); assay: SPR, preliminary
[4] = target: T1, Mammalian expressed extracellular human RON protein (Gly25 to Thr957) with His-tag (human); assay: ELISA, coated RON ECD
[5] = target: T1, Mammalian expressed extracellular human RON protein (Gly25 to Thr957) with His-tag (human); assay: KinExA titration, antibody titrated into fixed RON ECD concentrations of 400 nM and 40 nM
[6] = target: T1, Mammalian expressed extracellular human RON protein (Gly25 to Thr957) with His-tag (human); assay: KinExA titration, antibody titrated into fixed RON ECD concentrations of 10 nM and 1 nM [continued]
[7] = target: T1, Mammalian expressed extracellular human RON protein (Gly25 to Thr957) with His-tag (human); assay: KinExA, fixed antigen format
[8] = target: T1, Mammalian expressed extracellular human RON protein (Gly25 to Thr957) with His-tag (human); assay: KinExA titration, antibody titrated into fixed RON ECD concentrations of 50 nM and 5 nM [continued]
[9] = target: T1, Mammalian expressed extracellular human RON protein (Gly25 to Thr957) with His-tag (human); assay: KinExA titration, antibody titrated into a fixed RON ECD concentration of 100 nM [continued]

binding [1]: binds | binding [2]: binds | binding [3]: binds | binding [4]: binds
B1: 9F6 (antibody, V domains shown)
VH: QVKLEESGPELVKTGASVKISCKASGYSFTGYYIHWVKQSHGQSLEWIGYISCYNGATRYNQKFKGKAAFTVDTSSSTAYLQFNSLTSEDSAIYYCARGGTTATPFDYWGQGTTLTVSS
VL: DIVLTQTPSSLSASLGERVSLTCRASQDIGSNLNWLQQEPDGTIKRLIYATSSLDPGVPKRFSGSRSGSDYSLTISSLESEDFVDYYCLQYISSPFTFGSGTKLEIK

binding [1]: binds | binding [8]: binds | binding [2]: binds | binding [4]: binds
B4: 9F2 (antibody, V domains shown)
VH: QVKLQQSGPGLVAPSQSLSITCTVSGFSLTSYGVHWVRQPPGKGLEWLGVIWAGGTTNYNSALMSRLSISKDNSKSQVFLKMNSLQTDDTAMYYCASYDYDGYFDVWGAGTTVTVSS
VL: DIVLTQTTAIMSASPGEKVTMTCSASSSVSYIHWYQQKSSTSPKLWIYDTSKLASGVPGRFSGSGSGNSYSLTISSMEAEDVATYYCFQGNKYPLTFGAGTKLELK
notes: Mouse monoclonal antibody from a hybridoma; kappa light chain; also called Antibody 9F2; anti-RON antibody 9F2

Further lines, the binder ahead of its results:

B2: 3F6 (antibody, V domains shown)
VH: EVKLEESGPGLVKPSQSLSLTCSVTGYSITSGYYWNWIRQFPGNKLEWMGFMSYDGSNNYNPSLKNRISITRDTSKNQFFLKLNSVTSEDTATYYCSRALAYYGNFDYWGQGTTLTVSS
VL: DIVLTQTPSSLSASLGDRVTISCSASQDISNYLNWYQQKPDGIVKLLIYYTSSLHSGVPSRFSGSGSGTDFSLTISNLEPEDIATYYCQQYNKLPWTFGGGTKLEIK
notes: Mouse monoclonal antibody from a hybridoma; kappa light chain; also called anti-RON antibody 3F6
binding [1]: binds | binding [2]: binds | binding [4]: binds | binding [5]: binds

B3: 3F8 (antibody, V domains shown)
VH: EVKLQESGGGLVQPGRSLKLSCVASGFTFSSFWMHWVRQSPEKGLEWVAEIRLKSNNYATHYAESVKGRFTISRDDSKSSVHLQMNNLRTEDTGIYYCIPPYYYTVDYWGQGTSVTVSS
VL: DIVLTQTPKVMSTSVGDRVSVTCKASQNVNTNVAWYQQKPGQSPKALIYSASSRYSGVPDRFTGSGSGTDFTLTISNVQSEDLADYFCQQYNTYPLTFAAGTKLELK
notes: Mouse monoclonal antibody from a hybridoma; kappa light chain; also called Antibody 3F8; anti-RON antibody 3F8
binding [6]: binds | binding [1]: binds | binding [7]: binds | binding [2]: binds | binding [4]: binds

B5: 6A9 (antibody, V domains shown)
VH: EVKLEESGPGLLKPSQSLSLTCTVTGSSITSDYAWNWIRQFPGNKLEWMGYIGYSVGTSHNPSLKGRISITRDTSKNQFFLHLNSVTTEDTAIYYCARRPLYFYYAMDFWGQGTSVTVSS
VL: DIVLTQSPSSLSASLGDRVTITCRASQDISKYLNWYQQKPDGTVKLLIYYTSTLHSGVPSRFSGSGSGTDFSLTITNLEQEDIATYFCQQGNTLPRTFGGGTKLEIK
notes: Mouse monoclonal antibody from a hybridoma; kappa light chain; also called Antibody 6A9; anti-RON antibody 6A9
binding [1]: binds | binding [2]: binds | binding [9]: binds | binding [4]: binds
